Experimental data from the supplement of paper PMC4604168 (melanoma cell lines).
The list shows a part of the results. Repeats are few or missing, and single values can be far off.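 The apoptosis fraction was the count of cleaved-PARP antibody-stained nuclei relative to all DNA-stained nuclei, imaged in 1,536-well plates. Screening doses were set so most cells survived, and baseline and induced cleaved-PARP levels vary greatly across cell lines.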

test system: A2058; assay: cleaved PARP positive nuclei fraction relative to DMSO control; melanoma cells; higher = more apoptosis; conditions: library dose: low library concentration; 72 h

Compound | cleaved PARP positive nuclei fraction
Cc1ccc(NC(=O)c2cccc(N(C)C)c2)cc1NC(=O)c1ccc(O)cc1 + Oc1cc(-c2nc(-c3ccccc3)[nH]c2-c2ccncc2)ccc1Cl [L779450] (first compound 2 µM, partner dose 0.2 µM) | 182%
Cn1nnc2c(C(N)=O)ncn2c1=O [temozolomide] + CCN(CC)CCCCNc1ncc2cc(-c3cc(OC)cc(OC)c3)c(NC(=O)NC(C)(C)C)nc2n1 [PD173074] (first compound 2 µM, partner dose 0.1 µM) | 115%
CC(=O)c1c(C)c2cnc(Nc3ccc(N4CCNCC4)cn3)nc2n(C2CCCC2)c1=O [palbociclib] + COc1ccc(COc2ccc(Cc3cnc(N)nc3N)cc2OC)cc1 [GW2580] (first compound 0.04 µM, partner dose 1 µM) | 106%
C[C@]1(c2nc3c(C(N)=O)cccc3[nH]2)CCCN1 [Veliparib] + COc1cc2c(Oc3ccc4[nH]c(C)cc4c3F)ncnc2cc1OCCCN1CCCC1 [cediranib] (first compound 1.4 µM, partner dose 0.4 µM) | 92.3%
C=CCn1c(=O)c2cnc(Nc3ccc(N4CCN(C)CC4)cc3)nc2n1-c1cccc(C(C)(C)O)n1 + OCCn1cc(-c2cnc3nnn(Cc4ccc5ncccc5c4)c3n2)cn1 [PF04217903] (first compound 0.02 µM, partner dose 1 µM) | 66.1%

test system: A375; assay: as above; conditions: library dose: low library concentration; 72 h

Compound | cleaved PARP positive nuclei fraction
O=C(Nc1cccc(Cl)c1)Nc1ncc(CCNc2ncnc3ccsc23)s1 + O=C(O)c1ccc(-c2c[nH]c3ncc(-c4ccccc4)cc23)cc1C1CCCC1 [GSK650394] (first compound 0.0008 µM, partner dose 0.16 µM) | 53.8%
O=C(Nc1cccc(Cl)c1)Nc1ncc(CCNc2ncnc3ccsc23)s1 + CN(NC(=O)CC(=O)NN(C)C(=S)c1ccccc1)C(=S)c1ccccc1 [STA4783] (first compound 0.0008 µM, partner dose 0.006 µM) | 1460%
Cn1nnc2c(C(N)=O)ncn2c1=O [temozolomide] + Cc1cc([N+](=O)[O-])ccc1NS(=O)(=O)c1cc(Cl)ccc1Cl [FH535] (first compound 2 µM, partner dose 1 µM) | 135%
Cc1nc(Nc2ncc(C(=O)Nc3c(C)cccc3Cl)s2)cc(N2CCN(CCO)CC2)n1 [dasatanib] + C[C@]1(c2nc3c(C(N)=O)cccc3[nH]2)CCCN1 [Veliparib] (first compound 0.004 µM, partner dose 1.4 µM) | 257%
NC(=O)Nc1cc(-c2cccc(F)c2)sc1C(=O)N[C@H]1CCCNC1 + O=C(Nc1cccc(Cl)c1)Nc1ncc(CCNc2ncnc3ccsc23)s1 [SNS314] (first compound 0.02 µM, partner dose 0.0008 µM) | 452%
CC1(C)NC(=O)N(c2ccc([N+](=O)[O-])c(C(F)(F)F)c2)C1=O [nilutamide] + CO[C@@H]1[C@H](N(C)C(=O)c2ccccc2)C[C@H]2O[C@]1(C)n1c3ccccc3c3c4c(c5c6ccccc6n2c5c31)C(=O)NC4 [Midostaurin] (first compound 1 µM, partner dose 0.08 µM) | 242%
Cc1nc(Nc2ncc(C(=O)Nc3c(C)cccc3Cl)s2)cc(N2CCN(CCO)CC2)n1 [dasatanib] + Cn1cc(/C=C2\C(=O)Nc3cccnc32)c2ccccc21 [GW441756] (first compound 0.004 µM, partner dose 0.4 µM) | 244%
OCc1c[nH]c2ccccc12 [Indole-3-carbinol] + Clc1ccc(Nc2nnc(Cc3ccncc3)c3ccccc23)cc1 [vatalanib] (first compound 0.8 µM, partner dose 2 µM) | 110%
C=CCNC1=C2C[C@@H](C)C[C@H](OC)[C@H](O)[C@@H](C)/C=C(\C)[C@H](OC(N)=O)[C@@H](OC)/C=C\C=C(/C)C(=O)NC(=CC1=O)C2=O [Tanespimycin] + Cn1nnc2c(C(N)=O)ncn2c1=O [temozolomide] (first compound 0.002 µM, partner dose 2 µM) | 65.8%
Cc1cc(N2CCOCC2)cc2[nH]c(-c3c(NC[C@@H](O)c4cccc(Cl)c4)cc[nH]c3=O)nc12 + Oc1nc(-c2ccc(C(F)(F)F)cc2)nc2c1CSCC2 [XAV939] (first compound 0.2 µM, partner dose 2 µM) | 360%
Clc1ccc(Nc2nnc(Cc3ccncc3)c3ccccc23)cc1 [vatalanib] + COc1cc(Nc2ncc(F)c(Nc3ccc4c(n3)NC(=O)C(C)(C)O4)n2)cc(OC)c1OC [Tamatinib] (first compound 2 µM, partner dose 0.4 µM) | 133%
Cc1cc(N2CCOCC2)cc2[nH]c(-c3c(NC[C@@H](O)c4cccc(Cl)c4)cc[nH]c3=O)nc12 + Oc1cc(-c2nc(-c3ccccc3)[nH]c2-c2ccncc2)ccc1Cl [L779450] (first compound 0.2 µM, partner dose 0.2 µM) | 157%
C=CCn1c(=O)c2cnc(Nc3ccc(N4CCN(C)CC4)cc3)nc2n1-c1cccc(C(C)(C)O)n1 + Cc1cc([N+](=O)[O-])ccc1NS(=O)(=O)c1cc(Cl)ccc1Cl [FH535] (first compound 0.02 µM, partner dose 1 µM) | 317%
Cc1ccc(NC(=O)c2cccc(N(C)C)c2)cc1NC(=O)c1ccc(O)cc1 + CC(C)(C)c1cnc(CSc2cnc(NC(=O)C3CCNCC3)s2)o1 [SNS-032] (first compound 2 µM, partner dose 0.01 µM) | 38.6%
Cc1nc(Nc2ncc(C(=O)Nc3c(C)cccc3Cl)s2)cc(N2CCN(CCO)CC2)n1 [dasatanib] + NC(=O)Nc1cc(-c2cccc(F)c2)sc1C(=O)N[C@H]1CCCNC1 [AZD7762] (first compound 0.004 µM, partner dose 0.02 µM) | 54%
C#Cc1cccc(Nc2ncnc3cc(OCCOC)c(OCCOC)cc23)c1 [erlotinib] + COc1ccc(Cl)c(Nc2nc3ccccc3nc2NS(=O)(=O)c2cccc(NC(=O)C(C)(C)N)c2)c1 [XL147] (first compound 0.8 µM, partner dose 0.8 µM) | 78%
CO[C@@H]1[C@H](N(C)C(=O)c2ccccc2)C[C@H]2O[C@]1(C)n1c3ccccc3c3c4c(c5c6ccccc6n2c5c31)C(=O)NC4 [Midostaurin] + c1cc(-c2cnn3cc(-c4ccc(OCCN5CCCCC5)cc4)cnc23)ccn1 [Dorsomorphin] (first compound 0.08 µM, partner dose 0.4 µM) | 67.8%
NC(=O)Nc1cc(-c2cccc(F)c2)sc1C(=O)N[C@H]1CCCNC1 + N#Cc1c(O)c2c(-c3ccc(-c4ccccc4O)cc3)csc2[nH]c1=O [A769662] (first compound 0.02 µM, partner dose 2 µM) | 275%
C[C@]1(c2nc3c(C(N)=O)cccc3[nH]2)CCCN1 [Veliparib] + Cc1cc(N2CCOCC2)cc2[nH]c(-c3c(NC[C@@H](O)c4cccc(Cl)c4)cc[nH]c3=O)nc12 [BMS536924] (first compound 1.4 µM, partner dose 0.2 µM) | 111%
OCCn1cc(-c2cnc3nnn(Cc4ccc5ncccc5c4)c3n2)cn1 + CCN(CC)CCCCNc1ncc2cc(-c3cc(OC)cc(OC)c3)c(NC(=O)NC(C)(C)C)nc2n1 [PD173074] (first compound 1 µM, partner dose 0.1 µM) | 65.1%
Cc1nc(Nc2ncc(C(=O)Nc3c(C)cccc3Cl)s2)cc(N2CCN(CCO)CC2)n1 [dasatanib] + CN(C)S(=O)(=O)c1ccc2c(c1)/C(=C/c1cc3c([nH]1)CCCC3)C(=O)N2 [SU6656] (first compound 0.004 µM, partner dose 0.4 µM) | 68.2%
CC(=O)c1c(C)c2cnc(Nc3ccc(N4CCNCC4)cn3)nc2n(C2CCCC2)c1=O [palbociclib] + COc1cc(Nc2ncc(F)c(Nc3ccc4c(n3)NC(=O)C(C)(C)O4)n2)cc(OC)c1OC [Tamatinib] (first compound 0.04 µM, partner dose 0.4 µM) | 195%
CO[C@@H]1[C@H](N(C)C(=O)c2ccccc2)C[C@H]2O[C@]1(C)n1c3ccccc3c3c4c(c5c6ccccc6n2c5c31)C(=O)NC4 [Midostaurin] + CN(NC(=O)CC(=O)NN(C)C(=S)c1ccccc1)C(=S)c1ccccc1 [STA4783] (first compound 0.08 µM, partner dose 0.006 µM) | 840%
Cc1cc(N2CCOCC2)cc2[nH]c(-c3c(NC[C@@H](O)c4cccc(Cl)c4)cc[nH]c3=O)nc12 + CC(C)CCN1c2nc(Nc3cc(F)c(O)c(F)c3)ncc2N(C)C(=O)C1C [BID1870] (first compound 0.2 µM, partner dose 0.2 µM) | 163%
Nc1cccc2c1CN(C1CCC(=O)NC1=O)C2=O (configuration not stated) [lenalidomide] + COc1cc2c(Oc3ccc4[nH]c(C)cc4c3F)ncnc2cc1OCCCN1CCCC1 [cediranib] (first compound 1 µM, partner dose 0.4 µM) | 78.9%
CC(C)(C)c1cnc(CSc2cnc(NC(=O)C3CCNCC3)s2)o1 + O=S(=O)(c1ccccc1)N(CC(F)(F)F)c1ccc(C(O)(C(F)(F)F)C(F)(F)F)cc1 [T0901317] (first compound 0.01 µM, partner dose 1.4 µM) | 159%
OCc1c[nH]c2ccccc12 [Indole-3-carbinol] + NCC(=O)Nc1ccc(-n2nc(C(F)(F)F)cc2-c2ccc3c(ccc4ccccc43)c2)cc1 [OSU03012] (first compound 0.8 µM, partner dose 1 µM) | 1760%

Retrieved one by one from the list above, two records:
Compound | cleaved PARP positive nuclei fraction
CO[C@@H]1[C@H](N(C)C(=O)c2ccccc2)C[C@H]2O[C@]1(C)n1c3ccccc3c3c4c(c5c6ccccc6n2c5c31)C(=O)NC4 [Midostaurin] + c1cc(-c2cnn3cc(-c4ccc(OCCN5CCCCC5)cc4)cnc23)ccn1 [Dorsomorphin] (first compound 0.08 µM, partner dose 0.4 µM) | 67.8%
Cn1nnc2c(C(N)=O)ncn2c1=O [temozolomide] + Cc1cc([N+](=O)[O-])ccc1NS(=O)(=O)c1cc(Cl)ccc1Cl [FH535] (first compound 2 µM, partner dose 1 µM) | 135%
